{"source": "PubChem BioAssay AID1224830 (NIAID, 2016)", "screen": "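Genes whose knock-down alters the TNF-alpha reporter response to LPS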 (primary screen)", "cell system": "human THP-1 monocytic leukaemia cells, TNF dual-luciferase reporter clone, PMA-differentiated to macrophage-like cells", "reagents": "siRNA pool against human genes, 50 nM", "duration": "LPS for 4 h, given about 3 days after siRNA transfection", "conditions": "bacterial LPS (TLR4 ligand), 10 ng/ml", "measurement": "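TNF firefly reporter luminescence divided by renilla, normalised to the plate median, then turned into a robust z-score for each replicate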", "reading the numbers": "TNF reporter robust z-score: higher = stronger TNF reporter response to LPS", "active means": "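Each well counts as active if its z-score is over 2.8 or under -1.5; controls are left without a call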", "note": "Here is one part, drawn at random, of about 18,000 reagents. About 2,900 of them (16%) count as active. 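Calls are made per well; low scores hint the gene aids the LPS response, high scores that it dampens it.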 A number with no mark means an inactive call. Repeated entries: four replicate wells of each siRNA pool."}
{"gene knocked down": "SPHAR (retired record)", "TNF reporter robust z-score": 0.2}
{"gene knocked down": "SPHAR (retired record)", "TNF reporter robust z-score": -0.15}
{"gene knocked down": "SPHAR (retired record)", "TNF reporter robust z-score": -0.13}
{"gene knocked down": "SPHAR (retired record)", "TNF reporter robust z-score": 0.16}
{"gene knocked down": "ADAM19 (ADAM metallopeptidase domain 19)", "TNF reporter robust z-score": -0.54}
{"gene knocked down": "ADAM19 (ADAM metallopeptidase domain 19)", "TNF reporter robust z-score": 0.21}
{"gene knocked down": "ADAM19 (ADAM metallopeptidase domain 19)", "TNF reporter robust z-score": 0.38}
{"gene knocked down": "ADAM19 (ADAM metallopeptidase domain 19)", "TNF reporter robust z-score": 2.17}
{"gene knocked down": "ANXA10 (annexin A10)", "TNF reporter robust z-score": 0.52}
{"gene knocked down": "ANXA10 (annexin A10)", "TNF reporter robust z-score": -0.13}
{"gene knocked down": "ANXA10 (annexin A10)", "TNF reporter robust z-score": -0.62}
{"gene knocked down": "ANXA10 (annexin A10)", "TNF reporter robust z-score": -0.32}
{"gene knocked down": "SYNJ1 (synaptojanin 1)", "TNF reporter robust z-score": -0.65}
{"gene knocked down": "SYNJ1 (synaptojanin 1)", "TNF reporter robust z-score": 0.81}
{"gene knocked down": "SYNJ1 (synaptojanin 1)", "TNF reporter robust z-score": 0.27}
{"gene knocked down": "SYNJ1 (synaptojanin 1)", "TNF reporter robust z-score": -0.43}
{"gene knocked down": "UPRT (uracil phosphoribosyltransferase homolog)", "TNF reporter robust z-score": -1.49}
{"gene knocked down": "UPRT (uracil phosphoribosyltransferase homolog)", "TNF reporter robust z-score": -1.17}
{"gene knocked down": "UPRT (uracil phosphoribosyltransferase homolog)", "TNF reporter robust z-score": -1.02}
{"gene knocked down": "UPRT (uracil phosphoribosyltransferase homolog)", "TNF reporter robust z-score": -1.4}

Already shown: entries from further up.
{"gene knocked down": "SPHAR (retired record)", "TNF reporter robust z-score": 0.16}
{"gene knocked down": "ADAM19 (ADAM metallopeptidase domain 19)", "TNF reporter robust z-score": -0.54}

The results go on.
{"gene knocked down": "ZYX (zyxin)", "TNF reporter robust z-score": -0.42}
{"gene knocked down": "ZYX (zyxin)", "TNF reporter robust z-score": 0.24}
{"gene knocked down": "ZYX (zyxin)", "TNF reporter robust z-score": -0.06}
{"gene knocked down": "ZYX (zyxin)", "TNF reporter robust z-score": 0.73}
{"gene knocked down": "SRSF12 (serine and arginine rich splicing factor 12)", "TNF reporter robust z-score": 1.89}
{"gene knocked down": "SRSF12 (serine and arginine rich splicing factor 12)", "TNF reporter robust z-score": 1.23}
{"gene knocked down": "SRSF12 (serine and arginine rich splicing factor 12)", "TNF reporter robust z-score": 2.22}
{"gene knocked down": "SRSF12 (serine and arginine rich splicing factor 12)", "TNF reporter robust z-score": 2.2}
{"gene knocked down": "IGFBP5 (insulin like growth factor binding protein 5)", "TNF reporter robust z-score": -0.51}
{"gene knocked down": "IGFBP5 (insulin like growth factor binding protein 5)", "TNF reporter robust z-score": -0.88}
{"gene knocked down": "IGFBP5 (insulin like growth factor binding protein 5)", "TNF reporter robust z-score": 0.32}
{"gene knocked down": "IGFBP5 (insulin like growth factor binding protein 5)", "TNF reporter robust z-score": 1.31}
{"gene knocked down": "CHCHD4 (coiled-coil-helix-coiled-coil-helix domain containing 4)", "TNF reporter robust z-score": -0.02}
{"gene knocked down": "CHCHD4 (coiled-coil-helix-coiled-coil-helix domain containing 4)", "TNF reporter robust z-score": 0.24}
{"gene knocked down": "CHCHD4 (coiled-coil-helix-coiled-coil-helix domain containing 4)", "TNF reporter robust z-score": 0.08}
{"gene knocked down": "CHCHD4 (coiled-coil-helix-coiled-coil-helix domain containing 4)", "TNF reporter robust z-score": 0.06}
{"gene knocked down": "RPL3 (ribosomal protein L3)", "TNF reporter robust z-score": -0.77}
{"gene knocked down": "RPL3 (ribosomal protein L3)", "TNF reporter robust z-score": -0.55}
{"gene knocked down": "RPL3 (ribosomal protein L3)", "TNF reporter robust z-score": -1.28}
{"gene knocked down": "RPL3 (ribosomal protein L3)", "TNF reporter robust z-score": -0.67}
{"gene knocked down": "SLBP (stem-loop histone mRNA binding protein)", "TNF reporter robust z-score": 0.02}
{"gene knocked down": "SLBP (stem-loop histone mRNA binding protein)", "TNF reporter robust z-score": 0.72}
{"gene knocked down": "SLBP (stem-loop histone mRNA binding protein)", "TNF reporter robust z-score": -0.22}
{"gene knocked down": "SLBP (stem-loop histone mRNA binding protein)", "TNF reporter robust z-score": 0.3}
{"gene knocked down": "ACAA2 (acetyl-CoA acyltransferase 2)", "TNF reporter robust z-score": -1.11}
{"gene knocked down": "ACAA2 (acetyl-CoA acyltransferase 2)", "TNF reporter robust z-score": -0.62}
{"gene knocked down": "ACAA2 (acetyl-CoA acyltransferase 2)", "TNF reporter robust z-score": 1.4}
{"gene knocked down": "ACAA2 (acetyl-CoA acyltransferase 2)", "TNF reporter robust z-score": 1.17}
